Source: the supplement of paper PMC10849652
The list shows a part of the results.

Amino acid sequences for entries named in this document (tags omitted). A change or cut given only in a name is not applied to a line headed by its entry.
UniProt P05198, whole entry, looked up: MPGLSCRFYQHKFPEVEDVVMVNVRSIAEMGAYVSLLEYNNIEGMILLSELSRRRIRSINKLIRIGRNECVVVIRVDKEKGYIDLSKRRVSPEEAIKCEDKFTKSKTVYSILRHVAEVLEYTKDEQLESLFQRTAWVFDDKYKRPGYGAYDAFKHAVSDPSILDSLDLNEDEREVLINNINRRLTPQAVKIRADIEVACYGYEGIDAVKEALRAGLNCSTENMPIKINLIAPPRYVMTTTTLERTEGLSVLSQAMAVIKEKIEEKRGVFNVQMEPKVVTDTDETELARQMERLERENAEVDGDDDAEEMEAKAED
UniProt Q7L2H7, whole entry, looked up: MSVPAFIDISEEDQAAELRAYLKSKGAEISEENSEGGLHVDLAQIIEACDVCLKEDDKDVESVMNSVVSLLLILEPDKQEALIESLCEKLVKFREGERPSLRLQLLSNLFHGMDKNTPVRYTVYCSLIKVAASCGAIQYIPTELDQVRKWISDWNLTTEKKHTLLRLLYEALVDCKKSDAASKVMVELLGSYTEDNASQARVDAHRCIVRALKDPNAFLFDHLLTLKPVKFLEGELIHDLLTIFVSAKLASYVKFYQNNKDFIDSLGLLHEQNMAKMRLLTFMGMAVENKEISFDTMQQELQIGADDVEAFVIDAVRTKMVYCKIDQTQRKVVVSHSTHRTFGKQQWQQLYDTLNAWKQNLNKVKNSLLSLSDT
UniProt Q99613, whole entry, looked up: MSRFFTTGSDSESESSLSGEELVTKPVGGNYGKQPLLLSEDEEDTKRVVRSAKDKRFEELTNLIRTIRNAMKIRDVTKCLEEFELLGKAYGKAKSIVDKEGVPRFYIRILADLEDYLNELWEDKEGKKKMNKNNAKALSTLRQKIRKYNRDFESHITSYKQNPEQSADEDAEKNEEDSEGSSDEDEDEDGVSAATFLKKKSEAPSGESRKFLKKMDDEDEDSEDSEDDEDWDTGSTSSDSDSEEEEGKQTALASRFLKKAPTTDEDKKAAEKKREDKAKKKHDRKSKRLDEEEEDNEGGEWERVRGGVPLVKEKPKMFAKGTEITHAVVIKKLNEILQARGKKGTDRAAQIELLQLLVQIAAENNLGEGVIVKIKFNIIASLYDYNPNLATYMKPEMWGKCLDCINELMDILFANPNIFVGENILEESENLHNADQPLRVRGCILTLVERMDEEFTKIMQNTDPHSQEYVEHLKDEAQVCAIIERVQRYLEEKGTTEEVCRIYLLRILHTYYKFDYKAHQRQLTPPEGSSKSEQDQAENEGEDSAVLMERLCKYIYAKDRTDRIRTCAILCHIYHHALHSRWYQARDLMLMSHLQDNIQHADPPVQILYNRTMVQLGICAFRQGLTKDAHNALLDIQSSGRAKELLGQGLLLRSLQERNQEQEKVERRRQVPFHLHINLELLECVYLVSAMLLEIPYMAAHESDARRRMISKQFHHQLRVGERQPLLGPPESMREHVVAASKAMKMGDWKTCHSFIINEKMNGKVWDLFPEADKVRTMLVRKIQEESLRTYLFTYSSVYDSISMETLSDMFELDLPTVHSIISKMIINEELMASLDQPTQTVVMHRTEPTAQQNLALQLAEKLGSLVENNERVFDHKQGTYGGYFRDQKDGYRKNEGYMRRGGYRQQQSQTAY
UniProt Q8NFI3: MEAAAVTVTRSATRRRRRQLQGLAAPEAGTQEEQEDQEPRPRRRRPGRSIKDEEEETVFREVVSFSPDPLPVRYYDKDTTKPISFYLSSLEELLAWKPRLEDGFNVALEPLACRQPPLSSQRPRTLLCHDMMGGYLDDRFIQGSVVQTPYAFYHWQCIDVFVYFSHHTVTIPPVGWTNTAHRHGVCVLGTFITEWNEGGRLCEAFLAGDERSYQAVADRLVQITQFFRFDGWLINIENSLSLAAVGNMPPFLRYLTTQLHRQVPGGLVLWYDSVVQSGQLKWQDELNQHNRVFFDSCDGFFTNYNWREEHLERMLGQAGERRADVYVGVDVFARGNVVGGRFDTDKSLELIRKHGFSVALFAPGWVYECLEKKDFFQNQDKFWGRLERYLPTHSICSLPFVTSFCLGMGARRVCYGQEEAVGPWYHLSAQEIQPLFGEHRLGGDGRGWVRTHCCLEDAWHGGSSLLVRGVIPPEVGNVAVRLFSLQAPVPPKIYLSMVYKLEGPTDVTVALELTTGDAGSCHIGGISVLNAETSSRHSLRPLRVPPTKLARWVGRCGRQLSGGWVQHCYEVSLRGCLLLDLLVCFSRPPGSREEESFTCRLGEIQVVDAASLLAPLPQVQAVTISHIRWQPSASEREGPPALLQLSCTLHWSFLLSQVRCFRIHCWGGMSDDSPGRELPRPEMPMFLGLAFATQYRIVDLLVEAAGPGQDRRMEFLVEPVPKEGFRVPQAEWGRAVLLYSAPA
UniProt Q9BQI3, whole entry, looked up: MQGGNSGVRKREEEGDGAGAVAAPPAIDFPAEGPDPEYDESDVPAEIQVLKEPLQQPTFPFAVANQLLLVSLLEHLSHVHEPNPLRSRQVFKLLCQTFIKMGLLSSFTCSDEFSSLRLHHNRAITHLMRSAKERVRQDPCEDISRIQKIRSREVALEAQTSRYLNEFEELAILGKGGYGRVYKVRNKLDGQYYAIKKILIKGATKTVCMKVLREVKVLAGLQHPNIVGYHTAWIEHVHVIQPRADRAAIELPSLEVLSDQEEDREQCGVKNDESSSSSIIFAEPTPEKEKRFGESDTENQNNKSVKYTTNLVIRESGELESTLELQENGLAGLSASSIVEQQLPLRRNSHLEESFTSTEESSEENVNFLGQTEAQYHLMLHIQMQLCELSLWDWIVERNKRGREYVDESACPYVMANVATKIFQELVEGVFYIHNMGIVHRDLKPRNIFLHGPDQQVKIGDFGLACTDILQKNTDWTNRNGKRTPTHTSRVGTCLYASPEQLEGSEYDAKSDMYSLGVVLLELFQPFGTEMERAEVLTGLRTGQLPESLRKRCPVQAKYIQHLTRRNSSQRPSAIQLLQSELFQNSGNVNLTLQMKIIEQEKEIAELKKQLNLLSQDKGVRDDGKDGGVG
UniProt Q9P0I2: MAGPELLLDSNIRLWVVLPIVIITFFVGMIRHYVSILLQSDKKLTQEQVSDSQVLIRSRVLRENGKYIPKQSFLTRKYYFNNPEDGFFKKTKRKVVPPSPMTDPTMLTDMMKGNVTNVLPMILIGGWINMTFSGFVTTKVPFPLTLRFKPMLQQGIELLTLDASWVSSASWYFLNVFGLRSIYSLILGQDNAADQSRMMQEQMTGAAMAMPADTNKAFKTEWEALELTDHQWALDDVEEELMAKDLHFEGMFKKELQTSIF
UniProt Q9BW60: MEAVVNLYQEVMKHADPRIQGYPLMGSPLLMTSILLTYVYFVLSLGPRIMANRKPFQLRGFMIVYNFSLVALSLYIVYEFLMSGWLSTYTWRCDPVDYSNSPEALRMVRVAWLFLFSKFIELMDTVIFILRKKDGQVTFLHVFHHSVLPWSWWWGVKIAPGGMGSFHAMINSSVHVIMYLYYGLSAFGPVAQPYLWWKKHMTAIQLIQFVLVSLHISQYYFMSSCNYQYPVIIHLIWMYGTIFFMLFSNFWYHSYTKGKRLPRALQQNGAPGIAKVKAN
UniProt Q9NQZ7: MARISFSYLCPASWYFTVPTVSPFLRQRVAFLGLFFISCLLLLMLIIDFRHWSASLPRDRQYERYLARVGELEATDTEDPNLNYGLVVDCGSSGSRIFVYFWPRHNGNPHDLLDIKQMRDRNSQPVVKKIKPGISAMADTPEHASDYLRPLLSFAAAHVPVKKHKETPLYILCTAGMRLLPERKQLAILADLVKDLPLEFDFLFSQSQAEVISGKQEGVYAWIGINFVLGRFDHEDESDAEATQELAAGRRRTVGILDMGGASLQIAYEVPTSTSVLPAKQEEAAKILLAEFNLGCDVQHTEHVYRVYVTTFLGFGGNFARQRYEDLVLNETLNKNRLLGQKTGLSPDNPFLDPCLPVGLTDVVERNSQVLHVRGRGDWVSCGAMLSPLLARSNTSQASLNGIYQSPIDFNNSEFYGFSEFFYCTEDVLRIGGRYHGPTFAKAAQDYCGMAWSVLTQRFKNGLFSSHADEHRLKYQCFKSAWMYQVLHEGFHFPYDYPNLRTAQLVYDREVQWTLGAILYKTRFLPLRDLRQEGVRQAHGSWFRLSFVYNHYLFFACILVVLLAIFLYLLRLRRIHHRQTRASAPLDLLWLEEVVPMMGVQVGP
UniProt Q96C92: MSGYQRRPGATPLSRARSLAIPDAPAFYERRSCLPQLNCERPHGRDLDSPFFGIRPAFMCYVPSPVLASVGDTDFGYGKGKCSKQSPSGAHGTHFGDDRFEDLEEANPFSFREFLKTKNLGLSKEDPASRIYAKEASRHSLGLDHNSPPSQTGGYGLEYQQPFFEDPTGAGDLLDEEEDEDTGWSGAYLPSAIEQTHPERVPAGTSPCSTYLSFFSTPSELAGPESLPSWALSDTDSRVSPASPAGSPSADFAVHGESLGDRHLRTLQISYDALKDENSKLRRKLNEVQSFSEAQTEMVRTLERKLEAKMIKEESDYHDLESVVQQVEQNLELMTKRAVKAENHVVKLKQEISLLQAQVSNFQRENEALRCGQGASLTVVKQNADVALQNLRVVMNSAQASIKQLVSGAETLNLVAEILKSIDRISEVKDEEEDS
UniProt O15197: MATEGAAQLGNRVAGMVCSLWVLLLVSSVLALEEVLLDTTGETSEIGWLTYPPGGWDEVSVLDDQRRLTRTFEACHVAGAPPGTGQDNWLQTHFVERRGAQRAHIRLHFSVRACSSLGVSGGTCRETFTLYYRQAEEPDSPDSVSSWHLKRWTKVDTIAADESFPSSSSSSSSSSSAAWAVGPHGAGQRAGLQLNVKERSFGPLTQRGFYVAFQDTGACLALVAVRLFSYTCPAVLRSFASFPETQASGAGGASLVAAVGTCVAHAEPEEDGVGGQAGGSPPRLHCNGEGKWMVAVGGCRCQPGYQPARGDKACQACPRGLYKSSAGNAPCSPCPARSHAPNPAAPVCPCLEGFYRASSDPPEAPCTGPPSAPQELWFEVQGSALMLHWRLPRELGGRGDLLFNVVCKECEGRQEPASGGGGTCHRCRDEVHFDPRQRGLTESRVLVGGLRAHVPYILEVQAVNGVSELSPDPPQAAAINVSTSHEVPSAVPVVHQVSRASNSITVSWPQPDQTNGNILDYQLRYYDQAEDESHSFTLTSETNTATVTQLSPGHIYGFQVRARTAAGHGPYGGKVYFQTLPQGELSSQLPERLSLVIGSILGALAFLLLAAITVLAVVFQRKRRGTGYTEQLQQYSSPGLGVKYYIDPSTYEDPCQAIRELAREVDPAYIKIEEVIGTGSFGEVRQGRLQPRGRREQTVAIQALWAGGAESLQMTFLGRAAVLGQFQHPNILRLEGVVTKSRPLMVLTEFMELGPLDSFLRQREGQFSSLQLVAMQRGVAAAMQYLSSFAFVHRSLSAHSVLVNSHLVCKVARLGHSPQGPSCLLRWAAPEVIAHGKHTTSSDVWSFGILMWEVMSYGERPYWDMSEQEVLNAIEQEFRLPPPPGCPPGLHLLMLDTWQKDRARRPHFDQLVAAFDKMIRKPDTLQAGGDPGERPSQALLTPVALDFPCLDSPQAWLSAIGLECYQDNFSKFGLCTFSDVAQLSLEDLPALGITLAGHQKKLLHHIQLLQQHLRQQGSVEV

Legend:
Assay in all cases: log2 fold change, soluble protein after heating vs DMSO (PISA); higher = thermal stabilisation; K562 lysate, 10 uM; active = over 0.2 and 3.5 SD of the protein, either way, in both replicates (recomputed)
[1] = compound: C1=CC=C(C=C1)[C@H](COC2=CC3=C(C=C2)NC(=O)N3)NC(=O)C4=CC=CN(C4=O)CC5=CC(=C(C=C5)F)F
In short: (§1)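 Thermal stability, expressed as log-two fold change relative to solvent controls, is given from duplicates. Crude K562 extract in PBS pH 7.4 with 1 mM MgCl2, at 1 mg/mL protein, was treated with 10 μM compound for 30 min and heated in aliquots for 3 min across 48°C-58°C. After pooling, adjustment to 0.5% NP-40 at 4°C and centrifugation at 21,000xg for 90 min, supernatant protein was measured by TMTpro 16plex LC-MS/MS with channel sums equalised.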

[2] = compound: CC1=C(SC2=C1C(=N[C@H](C3=NN=C(N32)C)CC(=O)N)C4=CC=C(C=C4)Cl)C
In short: as §1

[3] = compound: CC1=C2C(=CC=C1)N=C(N(C2=O)C3=CC=CC=C3C)CN4C=NC5=C(N=CN=C54)N
In short: as §1

[4] = compound: Cc1sc2c(c1C)C(c1ccc(Cl)cc1)=N[C@@H](CC(=O)OC(C)(C)C)c1nnc(C)n1-2
In short: as §1

[5] = compound: c1ccc([C@@H]2C[C@H]2NC2CCNCC2)cc1
In short: as §1

Measured: log2 fold change

EIF2S1 (UniProt P05198)
inactive: [1] 0.007 | [2] 0.018 | [3] 0.001 | [4] -0.002 | [5] -0.02

EIF3M (UniProt Q7L2H7)
inactive: [1] 0.005 | [2] 0.004 | [3] -0.038 | [4] 0.033 | [5] 0.087

EIF3C (UniProt Q99613)
inactive: [1] -0.027 | [2] 0.015 | [3] 0.013 | [4] 0.005 | [5] 0.016

ENGASE (UniProt Q8NFI3)
inactive: [1] 0.042 | [2] 0.017 | [3] 0.038 | [4] 0.017 | [5] -0.023

EIF2AK1 (UniProt Q9BQI3)
inactive: [1] 0.006 | [2] -0.035 | [3] -0.007 | [4] -0.022 | [5] -0.041

EMC3 (UniProt Q9P0I2)
inactive: [1] -0.021 | [2] 0.041 | [3] 0.001 | [4] -0.051 | [5] 0.044

ELOVL1 (UniProt Q9BW60)
inactive: [1] -0.141 | [2] 0.05 | [3] 0.07 | [4] 0.021 | [5] 0.044

EPN2 (UniProt I3L356)
inactive: [1] 0.12 | [2] -0.062 | [5] -0.235

Quoted from above (2 entries):
EMC3 (UniProt Q9P0I2)
inactive: [1] -0.021 | [2] 0.041 | [3] 0.001 | [4] -0.051 | [5] 0.044

ELOVL1 (UniProt Q9BW60)
inactive: [1] -0.141 | [2] 0.05 | [3] 0.07 | [4] 0.021 | [5] 0.044

Following part:

ENTPD7 (UniProt Q9NQZ7)
inactive: [3] 0.041 | [5] 0.064

ENTR1 (UniProt Q96C92)
inactive: [3] 0.017

EPHB6 (UniProt O15197)
inactive: [3] -0.132 | [5] 0.128
